Results taken from patent publication US20240294544A1, “NEW SUBSTITUTED PYRIDINES AS FUNGICIDES” (BASF SE, priority 2021, published 2024).
Some results were stated once for a whole list of compounds, not compound by compound.

Assays:
Sclerotinia sclerotiorum = experiment: Example 17: preventative fungicidal control of white mold on oilseed rape caused by Sclerotinia sclerotiorum (green house); format: in vivo; conditions: 100 g/ha, sprayed one day before inoculation; assessed after 14 days; untreated plants 100% infected
[1] = tested on: Pyrenophora teres Qoi (FL129) resistant isolate; experiment: Example 12: activity against Pyrenophora teres Qoi (FL129) resistant isolate in the microtiterplate test; format: cell-based; conditions: 31 ppm active substance; DOB media (ph 7); relative to compound-free control (100%)
Botrytis cinerea [2] = experiment: Example 3: activity against the grey mold Botrytis cinerea in the microtiterplate test; format: cell-based; conditions: 31 ppm active substance; relative to compound-free control (100%)
Corynespora cassiicola = experiment: Example 14: activity against Corynespora cassiicola in the microtiterplate test; format: cell-based; conditions: 31 ppm active substance; DOB media (ph 7); relative to compound-free control (100%)
Botrytis cinerea [3] = experiment: Example 19: long lasting control of Botrytis cinerea on leaves of green pepper (green house); format: in vivo; conditions: 250 ppm, sprayed 7 days before inoculation; assessed after 5 days; untreated plants 90% infected
[4] = tested on: Corynespora cassiicola (CORYCA-G) G413A mutant; experiment: Example 15: activity against Corynespora cassiicola (CORYCA-G) G413A mutant in the microtiterplate test; format: cell-based; conditions: 31 ppm active substance; DOB media (ph 7); relative to compound-free control (100%)
Monilinia laxa = experiment: Example 10: activity against Monilinia laxa in the microtiterplate test; format: cell-based; conditions: 31 ppm active substance; DOB media (ph 7); relative to compound-free control (100%)
Microdochium nivale = experiment: Example 6: activity against Microdochium nivale in the microtiterplate test; format: cell-based; conditions: 31 ppm active substance; DOB media (ph 7); relative to compound-free control (100%)
Leptosphaeria nodorum = experiment: Example 8: activity against Leptosphaeria nodorum in the microtiterplate test; format: cell-based; conditions: 31 ppm active substance; DOB media (ph 7); relative to compound-free control (100%)
Leptosphaeria maculans = experiment: Example 13: activity against Leptosphaeria maculans in the microtiterplate test; format: cell-based; conditions: 31 ppm active substance; DOB media (ph 7); relative to compound-free control (100%)
Fusarium gramminearis = experiment: Example 9: activity against Fusarium gramminearis in the microtiterplate test; format: cell-based; conditions: 31 ppm active substance; DOB media (ph 7); relative to compound-free control (100%)
[5] = tested on: Colletotrichum orbiculare; experiment: Example 7: activity against Colletotrichum orbiculare in the microtiterplate test; format: cell-based; conditions: 31 ppm active substance; DOB media (ph 7); relative to compound-free control (100%)
Botrytis cinerea [6] = experiment: Example 18: preventative fungicidal control of Botrytis cinerea on leaves of green pepper (green house); format: in vivo; conditions: 250 ppm, sprayed one day before inoculation; assessed after 5 days; untreated plants 100% infected
Ustilago maydis = experiment: Example 11: activity against Ustilago maydis in the microtiterplate test; format: cell-based; conditions: 31 ppm active substance; DOB media (ph 7); relative to compound-free control (100%)
Fusarium culmorum = experiment: Example 4: activity against Fusarium culmorum in the microtiterplate test; format: cell-based; conditions: 31 ppm active substance; relative to compound-free control (100%)
Botrytis cinerea [7] = experiment: Example 16: preventative fungicidal control of Botrytis cinerea on leaves of green pepper (green house); format: in vivo; conditions: 250 ppm, sprayed one day before inoculation; assessed after 5 days; untreated plants 90% infected
Septoria tritici = experiment: Example 5: activity against the leaf blotch on wheat caused by Septoria tritici in the microtiterplate test; format: cell-based; conditions: 31 ppm active substance; relative to compound-free control (100%)

| Compound | growth of the pathogen (visually assessed as % diseased leaf area) (Sclerotinia sclerotiorum) | growth of the pathogen [1] | growth of the pathogen (Botrytis cinerea [2]) | growth of the pathogen (Corynespora cassiicola) | growth of the pathogen (visually assessed as % diseased leaf area) (Botrytis cinerea [3]) | growth of the pathogen [4] | growth of the pathogen (Monilinia laxa) | growth of the pathogen (Microdochium nivale) | growth of the pathogen (Leptosphaeria nodorum) | growth of the pathogen (Leptosphaeria maculans) | growth of the pathogen (Fusarium gramminearis) | growth of the pathogen [5] | growth of the pathogen (visually assessed as % diseased leaf area) (Botrytis cinerea [6]) | growth of the pathogen (Ustilago maydis) | growth of the pathogen (Fusarium culmorum) | growth of the pathogen (visually assessed as % diseased leaf area) (Botrytis cinerea [7]) | growth of the pathogen (Septoria tritici) |
| --- | --- | --- | --- | --- | --- | --- | --- | --- | --- | --- | --- | --- | --- | --- | --- | --- | --- |
| Cc1cc(C2=NC(C)(C)Oc3ccccc32)cnc1C(F)F [Ex-1] | at most 10% | ≤ 16% | ≤ 11% | ≤ 19% | at most 15% | ≤ 19% | ≤ 16% | ≤ 18% | ≤ 19% | ≤ 10% | ≤ 17% |  |  |  |  |  |  |
| Cc1cc(C2=NC3(Oc4ccccc42)C(C)CCCC3C)cnc1C (centres unmarked) [Ex-13] |  | ≤ 16% | ≤ 11% | ≤ 19% |  | ≤ 19% |  | ≤ 18% | ≤ 19% | ≤ 10% | ≤ 17% | ≤ 17% | at most 15% | ≤ 19% | ≤ 19% | at most 15% |  |
| Cc1cc(C2=NC3(CCC3)Oc3c2cccc3C(C)(C)C)cnc1C [Ex-14] |  | ≤ 16% | ≤ 11% | ≤ 19% |  | ≤ 19% |  | ≤ 18% | ≤ 19% | ≤ 10% |  | ≤ 17% | at most 15% |  |  | at most 15% | ≤ 20% |
| CCC1(C)N=C(c2cnc(C)c(C)c2)c2ccccc2O1 (centres unmarked) [Ex-17] |  | ≤ 16% | ≤ 11% | ≤ 19% |  | ≤ 19% |  |  |  | ≤ 10% | ≤ 17% | ≤ 17% | at most 15% |  |  | at most 15% |  |
| Cc1cc(C2=NC3(CCC3)Oc3c(C)cccc32)cnc1C [Ex-20] |  | ≤ 16% | ≤ 11% | ≤ 19% |  | ≤ 19% | ≤ 16% | ≤ 18% | ≤ 19% | ≤ 10% | ≤ 17% | ≤ 17% | at most 15% | ≤ 19% | ≤ 19% | at most 15% |  |
| Cc1cc(C2=NC(C)(C(C)(C)C)Oc3c(F)cccc32)cnc1C (centres unmarked) [Ex-30] |  | ≤ 16% | ≤ 11% |  |  |  | ≤ 16% | ≤ 18% | ≤ 19% | ≤ 10% |  | ≤ 17% |  |  |  | at most 15% | ≤ 20% |
| Cc1cc(C2=NC3(CC4CCC3C4)Oc3ccccc32)cnc1C (centres unmarked) [Ex-31] |  | ≤ 16% | ≤ 11% |  |  | ≤ 19% | ≤ 16% | ≤ 18% | ≤ 19% | ≤ 10% |  | ≤ 17% | at most 15% |  |  | at most 15% |  |
